PubChem BioAssay AID504804 | Drosophila RNAi Screening Center | 2011

Assay: 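dsRNAs that improve Kc cell survival under doxorubicin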 (primary screen)
System: Drosophila Kc cells
Reagents: long dsRNA against Drosophila genes, 0.5 µg dsRNA per well
Timing: 96 h (48 h knock-down, then 48 h drug)
Challenge: doxorubicin 5 µg/ml for 48 h, added 48 h after dsRNA
Measurement: 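Viability measured as cellular ATP by luminescence after 48 h knock-down then 48 h doxorubicin at 5 µg/ml; unnormalised plate counts for each replicate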
Scale: raw ATP luminescence: higher = more viable cells, protection from doxorubicin
Active means: 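Active when both duplicate wells lie at least 2 SD above the plate mean and protection is confirmed by rescreening and independent dsRNAs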
The screen tested about 19,000 reagents; below is an unselected part of those that have a named target and a result. In the full data, 47 (0.25%) were called active. 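Signals are raw, not normalised; exact z-scores behind calls not deposited; actives needed confirmation, so some wells reaching 2 SD are inactive.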 A plus sign joins genes that one reagent is predicted to hit.

no.	gene	DRSC id	raw ATP luminescence, replicate 1	raw ATP luminescence, replicate 2	Call
1	CG4666	DRSC18379	57980	46760	inactive
2	Rtf1	DRSC04085	1.01e5	73773	inactive
3	CatB	DRSC03194	1.09e5	69190	inactive
4	Dhc64C	DRSC08656	38770	39447	inactive
5	CG3513	DRSC00608	36060	46767	inactive
6	CG18788	DRSC02697	60417	70540	inactive
7	CG13041	DRSC09922	58157	43250	inactive
8	Np	DRSC06089	30853	65627	inactive
9	Np	DRSC07094	38443	71720	inactive
10	CG7248	DRSC10788	74390	60033	inactive
11	CG13698	DRSC10047	20607	21270	inactive
12	Nopp140	DRSC11872	62180	59193	inactive
13	CG32459	DRSC11852	59313	57683	inactive
14	btl	DRSC11331	62260	59333	inactive
15	RpL36	DRSC18708	28380	27350	inactive
16	MTF-1	DRSC08983	1.42e5	1.68e5	inactive
17	MTF-1	DRSC11217	86910	78517	inactive
18	ClpX	DRSC15592	28430	32267	inactive
19	Gdh	DRSC16679	36517	51460	inactive
20	Bmcp	DRSC10808	53920	47270	inactive
21	Dip-B	DRSC16466	62483	27200	inactive
22	CG15203	DRSC19650	3.21e5	3.43e5	inactive
23	ACOX1	DRSC05941	55097	65187	inactive
24	Fign	DRSC00592	1.17e5	73097	inactive
25	CG11619	DRSC09849	75323	55360	inactive
26	snz	DRSC17969	27000	40220	inactive
27	Jhbp15	DRSC15217	77290	64680	inactive
28	CG12253	DRSC02153	81013	56397	inactive
29	Prosbeta5R2	DRSC01617	2.82e5	2.70e5	inactive
30	TTLL4A	DRSC02528	91700	62213	inactive
31	Vps36	DRSC09785	65167	56617	inactive
32	CG9933	DRSC03276	61597	63600	inactive
33	CG12828	DRSC06177	57690	77723	inactive
34	Mks1	DRSC19697	2.28e5	1.47e5	inactive
35	RAF2	DRSC10443	26923	22960	inactive
36	RAF2	DRSC10454	57660	50300	inactive
37	CG7794	DRSC16313	54640	54680	inactive
38	gol	DRSC04689	66520	53487	inactive
39	CG34124	DRSC00849	2.99e5	3.03e5	inactive
40	Jon99Cii	DRSC16858	54590	38190	inactive
41	sut2	DRSC07701	67283	57493	inactive
42	CG5510	DRSC15823	63120	77450	inactive
43	gdl-ORF39 + gdl	DRSC11350	40960	37740	inactive
44	CG13077	DRSC02181	71660	53790	inactive
45	loqs	DRSC02997	75130	64917	inactive
46	CG15546	DRSC15084	42730	41520	inactive
47	Ada2b	DRSC16531	66153	78337	inactive
48	Ravus	DRSC15126	79110	54290	inactive
49	ND-B14	DRSC07029	31867	67683	inactive
50	CG5376	DRSC15782	46250	56060	inactive

Continued (7 carried over from the part before).
no.	gene	DRSC id	raw ATP luminescence, replicate 1	raw ATP luminescence, replicate 2	Call
44	CG13077	DRSC02181	71660	53790	inactive
45	loqs	DRSC02997	75130	64917	inactive
46	CG15546	DRSC15084	42730	41520	inactive
47	Ada2b	DRSC16531	66153	78337	inactive
48	Ravus	DRSC15126	79110	54290	inactive
49	ND-B14	DRSC07029	31867	67683	inactive
50	CG5376	DRSC15782	46250	56060	inactive
51	CG9471	DRSC16499	65213	54517	inactive
52	CG33673	DRSC00084	3.09e5	3.16e5	inactive
53	wde	DRSC05955	52887	47690	inactive
54	l(2)k14505	DRSC03106	63747	65953	inactive
55	Gbs-76A	DRSC11081	26423	21373	inactive
56	rogdi	DRSC10906	17753	16600	inactive
57	CG34149	DRSC14537	43343	34970	inactive
58	CCHa2	DRSC14835	86250	83890	inactive
59	CG2082	DRSC12125	75660	25463	inactive
60	nrm	DRSC11597	63200	53347	inactive
61	nrm	DRSC11599	65597	60823	inactive
62	nrm	DRSC11897	69633	73933	inactive
63	Cln3	DRSC10520	87007	54143	inactive
64	su(Hw)	DRSC17074	64013	28653	inactive
65	Hmu	DRSC16705	52510	38740	inactive
66	Spt20	DRSC10280	36930	37227	inactive
67	CG2267	DRSC15435	40870	35710	inactive
68	CG14043	DRSC02368	31157	38273	inactive
69	d4	DRSC04881	77043	66393	inactive
70	CG4988	DRSC02800	42160	75670	inactive
71	CG14079	DRSC10083	51867	61100	inactive
72	Cyp4g15	DRSC20240	3.07e5	2.87e5	inactive
73	CG13359	DRSC18539	42500	49940	inactive
74	Polr2M	DRSC15513	46030	54000	inactive
75	PH4alphaNE2	DRSC16544	43220	45440	inactive
76	Kdsr	DRSC14245	2.06e5	2.14e5	inactive
77	Ir7f	DRSC18012	50090	43540	inactive
78	CG3702	DRSC00628	1.01e5	83173	inactive
79	Cyp49a1	DRSC06737	60947	84903	inactive
80	Cyp49a1	DRSC07367	63917	77737	inactive
81	Or88a	DRSC16770	83940	81670	inactive
82	CG42331	DRSC14633	2.14e5	1.87e5	inactive
83	CG42331	DRSC16126	70060	67330	inactive
84	Catsup	DRSC03288	57207	55630	inactive
